Laboratory results reported in PubChem BioAssay AID1439 (NMMLSC, 2008).
About 770 (0.35%) of roughly 220,000 compounds were called active. This list was built around the results that the source calls inconclusive (neither active nor inactive); the mix of calls is not that of the screen. No stated cut-off is given here; in the data, active means binding response below about 49% or above about 150%; inconclusive means no clear call, values can overlap the other calls; inactive means in between.

Amino acid sequences for entries named in this document (tags omitted).
UniProt P09471, whole entry, looked up: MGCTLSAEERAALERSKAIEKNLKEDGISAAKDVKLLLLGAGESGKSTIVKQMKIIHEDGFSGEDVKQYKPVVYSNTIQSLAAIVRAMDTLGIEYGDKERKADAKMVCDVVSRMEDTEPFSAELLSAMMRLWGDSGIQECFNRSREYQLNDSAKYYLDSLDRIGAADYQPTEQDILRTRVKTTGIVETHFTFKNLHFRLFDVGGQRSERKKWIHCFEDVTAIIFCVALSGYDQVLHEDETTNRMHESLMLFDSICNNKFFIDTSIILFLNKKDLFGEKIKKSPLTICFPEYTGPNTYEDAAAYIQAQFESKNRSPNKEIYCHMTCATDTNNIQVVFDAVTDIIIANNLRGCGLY

What follows are compounds tested against Guanine nucleotide-binding protein G(o) subunit alpha (Homo sapiens) (UniProt P09471) (assay: RGS7-Galphao binding modulators, primary screen, biochemical, multiplexed bead flow cytometry (AID 1439;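 further: fluorescent Galphao held in activated GDP-AlF4 state binding bead-coupled RGS7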)). Conditions: at 10 µM, actives lie on both sides.
In the case of CC(=O)c1ccc(-c2nnc(CCC(=O)N(C)Cc3c(C)nc4ccccn34)o2)s1, the binding response (% of control) is reported as inactive: 106%. For CCn1c2ccccc2c2cc(NC(=O)COC(=O)c3cc(Cl)c(N)cc3OC)ccc21, the binding response (% of control) was inconclusive: 94.2%. With COc1ccc(-c2c(=O)n(OCc3ccccc3[N+](=O)[O-])c3ccccc3[n+]2[O-])c(OC)c1 the binding response (% of control) was inconclusive: 80.6%. In the case of COc1ccc(NC(=O)CC2C(=O)NCCN2C(=O)c2ccc(N(C)C)cc2)cc1 (stereo unspecified), the binding response (% of control) is reported as inconclusive: 54.9%. With O=C(Nc1ccccc1F)N1CCCC1c1cccnc1 (stereo unspecified) the binding response (% of control) was inconclusive: 91.5%. For Cc1cccc(C)c1NS(=O)(=O)c1ccc(OCCNS(C)(=O)=O)cc1, the binding response (% of control) was inactive: 83.8%. Cn1c(N)c(C(=O)CSc2nc3ccccc3[nH]2)c(=O)n(C)c1=O was tested, and the binding response (% of control) was inconclusive: 288%. For CCOC(=O)C1=C(C)N(CC(C)C)C(=O)/C1=C\c1cccs1, the binding response (% of control) was inconclusive: 74.7%. In the case of CCOC(=O)c1cn2nc(Oc3ccc(OC)cc3)ccc2n1, the binding response (% of control) is reported as inconclusive: 97.5%. With CC(=O)Nc1cccc(-c2cc(-c3c(Cl)cccc3Cl)no2)c1 the binding response (% of control) was inconclusive: 108%. With CO/N=C(\CCC(=O)O)c1cccs1 the binding response (% of control) was inconclusive: 86.1%. Cc1ccc(Cl)cc1NC(=O)COC(=O)c1ccccc1O was tested, and the binding response (% of control) was inconclusive: 116%. For O=C(NNC(=O)c1ccncc1)NC1CCCCC1, the binding response (% of control) was inactive: 98.8%. In the case of Nc1nnc(-c2ccccc2)s1, the binding response (% of control) is reported as inactive: 100%. With CSC1=N/C(=C/c2cccnc2)C(=O)N1Cc1ccc(Cl)cc1 the binding response (% of control) was inconclusive: 187%. CC(Sc1ccccc1)C(=O)Nc1ccc(S(=O)(=O)N2CCOCC2)cc1 (stereo unspecified) was tested, and the binding response (% of control) was inactive: 100%. In the case of Cc1ccc(Nc2ncc(C(=O)NCCCN3CCN(C)CC3)c3ccccc23)cc1Cl, the binding response (% of control) is reported as inconclusive: 95.4%. For O=C(COc1ccc(Cl)cc1)Nc1ccccc1C(=O)NCc1ccco1, the binding response (% of control) was inactive: 99.5%. With CC1(c2ccccc2)CC(C)(C)n2c(O)c(C3=NC(=S)NC3=O)c3cccc1c32 (stereo unspecified) the binding response (% of control) was inconclusive: 113%. For COc1ccc(C(=O)NCC(=O)N2CCCC(C)C2)cc1OC (stereo unspecified), the binding response (% of control) was inconclusive: 114%. Cc1nn(C)c(C)c1/C=C(/C(=O)C(C)(C)C)n1cncn1 was tested, and the binding response (% of control) was inconclusive: 117%. In the case of CC(=O)OCC(=O)NCc1ccc2c(c1)OCO2, the binding response (% of control) is reported as inactive: 106%. With COC(=O)C(C)N1C(=O)S/C(=C/c2cc(C)n(-c3ccccn3)c2C)C1=O (stereo unspecified) the binding response (% of control) was inactive: 101%. With O=C(CN1C(=O)NC2(CCCC2)C1=O)Nc1nc(-c2ccc(F)cc2)cs1 the binding response (% of control) was inactive: 101%. With O=C(Nc1nnc(-c2ccco2)o1)c1ccc(S(=O)(=O)N2CCCC2)cc1 the binding response (% of control) was inactive: 105%. In the case of Cc1ccc(CNC(=O)c2cc(-c3cc(C)cc(C)c3O)n[nH]2)cc1, the binding response (% of control) is reported as inconclusive: 103%. In the case of Cc1ccc(-n2sc3ccccc3c2=O)cc1S(=O)(=O)N1CCCCC1, the binding response (% of control) is reported as inactive: 97%. In the case of CSc1nnc(-c2ccc(NC(N)=S)cc2)o1, the binding response (% of control) is reported as inconclusive: 125%. CCOC(=O)NC(=S)Nc1ccc(C(C)(C)C)cc1Br was tested, and the binding response (% of control) was inconclusive: 125%. For Cc1ccc(-c2nn3c(C)nnc3c3ccccc23)cc1S(=O)(=O)NCCO, the binding response (% of control) was active: 172% [activator]. For CCn1cc(CNC(=S)Nc2cccc3ccccc23)cn1, the binding response (% of control) was inactive: 96.2%. In the case of CN(C(=O)CSc1nc2ccc(Br)cc2c(=O)n1Cc1ccco1)C1CCS(=O)(=O)C1 (stereo unspecified), the binding response (% of control) is reported as inconclusive: 82.8%. With Cc1cc(C)c(C(=O)O)c(CC(C)(C)C(=O)O)c1 the binding response (% of control) was inconclusive: 99.5%. CC(C)Nc1nc(Cl)nc(N(C#N)CN2C(=O)c3ccccc3S2(=O)=O)n1 was tested, and the binding response (% of control) was inconclusive: 59.8%. O=C1CC(NCc2ccc(F)cc2)C(=O)N1c1ccccc1 (stereo unspecified) was tested, and the binding response (% of control) was inconclusive: 128%. COc1ccc(OCC(O)CNC(=O)Nc2ccccc2)cc1 (stereo unspecified) was tested, and the binding response (% of control) was inconclusive: 97.2%. S=C1NC2(CCS1)Oc1ccccc1C1CC(c3ccccc3)=NN12 (stereo unspecified) was tested, and the binding response (% of control) was inconclusive: 102%. O=C(C1CCN(S(=O)(=O)c2cccnc2)CC1)N1CCN(C2CCCC2)CC1 was tested, and the binding response (% of control) was inactive: 120%. For NC(=O)CC(NC(=O)Cc1ccc(Br)cc1)c1ccc(NCCc2ccc(F)cc2)c([N+](=O)[O-])c1 (stereo unspecified), the binding response (% of control) was inconclusive: 118%. In the case of COCc1c(C(=O)Nc2nc(C)cs2)oc2ccccc12, the binding response (% of control) is reported as inconclusive: 103%. In the case of S=c1[nH]nc(-c2ccc(Br)cc2)n1-c1ccc2c(c1)OCCO2, the binding response (% of control) is reported as inconclusive: 278%. Cc1cc(C)c(S(=O)(=O)N2CCCCC2)c(C)c1N(C)S(=O)(=O)c1ccccc1 was tested, and the binding response (% of control) was inactive: 102%. For CCOC(=O)N1CCN(C(=O)c2ccc(OC)cc2)CC1, the binding response (% of control) was inactive: 101%. For Cn1c(=O)c(=O)n(C)c2cc(S(=O)(=O)N3CCCC3C(=O)NCc3cccs3)ccc21 (stereo unspecified), the binding response (% of control) was inconclusive: 161%. O=Cc1ccccc1-n1cncn1 was tested, and the binding response (% of control) was inconclusive: 69.3%. With COc1ccccc1N=C1SCC(=O)N1Cc1ccco1 the binding response (% of control) was inconclusive: 95.6%. With C=CCN(c1ccccc1)S(=O)(=O)c1cccc(C(=O)OCC(=O)NCCOC)c1 the binding response (% of control) was inconclusive: 97.7%. O=C(CSc1nnc2ccccn12)NNC(=O)c1ccc(Br)cc1 was tested, and the binding response (% of control) was inconclusive: 110%. With COc1ccc(C2CC(c3ccc4ccccc4c3OC(C)=O)=NN2C(C)=O)cc1 (stereo unspecified) the binding response (% of control) was inconclusive: 95.3%. In the case of Cc1ccc(C)c(NC(=S)NC(C)C(c2ccccc2)N2CCN(C)CC2)c1 (stereo unspecified), the binding response (% of control) is reported as inconclusive: 91.5%. Nc1c(C(=O)N/N=C/c2ccc([N+](=O)[O-])cc2)cnn1-c1ccccc1 was tested, and the binding response (% of control) was inconclusive: 48.6%. With CCc1ccnc(NS(=O)(=O)c2ccc3c(c2)CCO3)c1 the binding response (% of control) was inconclusive: 119%. In the case of CCCCCCNC1=NCCS1, the binding response (% of control) is reported as inactive: 101%. With O=C(CSc1nnc(CNc2ccccc2)o1)N1CCc2ccccc21 the binding response (% of control) was inactive: 99.5%. CN(CC(=O)NC1CCCCC1)S(=O)(=O)c1ccc(Br)s1 was tested, and the binding response (% of control) was inactive: 99.1%. For CC(=O)CCn1cc([N+](=O)[O-])nc1C, the binding response (% of control) was inconclusive: 110%. With Cc1ccccc1NC(=O)COC(=O)c1cc(=O)c2ccccc2o1 the binding response (% of control) was active: 37%. In the case of O=C(CNS(=O)(=O)c1ccc(Cl)cc1)NNC(=O)c1cccnc1, the binding response (% of control) is reported as inconclusive: 83.2%. For COc1ccccc1C1CCN(Cc2c(C)[nH]c3ccccc23)CC1, the binding response (% of control) was inconclusive: 103%. COc1ccc(CCC(=O)OCC(=O)c2cccc(OC)c2)cc1 was tested, and the binding response (% of control) was inconclusive: 114%. In the case of CN(C)N1C(=O)CC(N2CCCCC2)C1=O (stereo unspecified), the binding response (% of control) is reported as inactive: 101%. CC(=O)c1c(C)[nH]c(C(=O)Nc2cccc(S(=O)(=O)N(C)c3ccccc3)c2)c1C was tested, and the binding response (% of control) was inactive: 107%. With CN1CCN(c2ccc(C(=O)c3cn(-c4ccc(F)c(Cl)c4)nn3)cc2)CC1 the binding response (% of control) was inconclusive: 84.1%. For CC[C@@]1(O)C(=O)OCc2c1cc1n(c2=O)Cc2cc3c(N)cccc3nc2-1, the binding response (% of control) was inconclusive: 85.9%. For CCC(C)C(=O)Nc1cccc(SC)c1 (stereo unspecified), the binding response (% of control) was inactive: 108%. COc1cc2cc(C(=O)N3CCN(Cc4ccc5c(c4)OCO5)CC3)c(=O)oc2cc1OC was tested, and the binding response (% of control) was inconclusive: 105%. In the case of CCOc1cccc(C(=O)Nc2cccc(-c3nnc(-c4ccccc4)o3)c2)c1, the binding response (% of control) is reported as inactive: 89.2%. Cc1onc(-c2ccccc2Cl)c1C(=O)NCc1cccs1 was tested, and the binding response (% of control) was inactive: 102%. COc1ccc(CNCCSc2nnnn2C)c(OC)c1OC was tested, and the binding response (% of control) was inactive: 107%. For O=C(O)CCCCCNC(=O)c1ccc(C(=O)NCCCCCC(=O)O)cc1, the binding response (% of control) was inconclusive: 109%. In the case of CC(NC(=O)C1CCCN(C(=O)N(C)C)C1)c1ccccc1 (stereo unspecified), the binding response (% of control) is reported as inactive: 97.1%. O=C(Cc1ccc(Cl)cc1)NCC(=O)N1CCCCC1 was tested, and the binding response (% of control) was inconclusive: 96.2%. With O=C(O)/C=C/C(=O)N(Cc1ccc2c(c1)OCO2)C1CC(=O)N(CCc2ccccc2)C1=O (stereo unspecified) the binding response (% of control) was inactive: 96.8%. With O=C(CSc1n[nH]c(=O)n1-c1ccc2c(c1)OCCO2)Nc1ccccc1 the binding response (% of control) was inconclusive: 67%. For Cc1cccc(-n2nc([N+](=O)[O-])c(=NC3CCN(Cc4ccccc4)CC3)n2O)c1, the binding response (% of control) was inconclusive: 111%. In the case of CCCCN(C(=S)Nc1cccc(C)c1C)c1c(N)n(CCC)c(=O)[nH]c1=O, the binding response (% of control) is reported as inconclusive: 111%. In the case of C/C(CC(C)C)=N/Nc1ccc([N+](=O)[O-])cc1[N+](=O)[O-], the binding response (% of control) is reported as inconclusive: 108%. COc1ccc(C(=O)c2cc([N+](=O)[O-])ccc2N2CCOCC2)cc1 was tested, and the binding response (% of control) was inactive: 92.7%. For O=C(O)c1cc(-c2ccccc2)nc2nc(N3CCCCC3)sc12, the binding response (% of control) was inconclusive: 67.2%. With COc1ccc(C[C@@H]2CN3C(=NC[C@@H]3Cc3ccc(O)cc3)N2C[C@H](C)NC(=O)CCC2CCCCC2)cc1 the binding response (% of control) was inconclusive: 82.8%. In the case of O=C(COc1ccccc1)N1CCN=C1SCc1ccccc1F, the binding response (% of control) is reported as inconclusive: 104%. COCCCNC(=O)CCc1c(C)nc2c(-c3ccc(F)cc3)c(C)nn2c1C was tested, and the binding response (% of control) was inconclusive: 199%. For COc1ccc(NC(=O)CC2Nc3ccccc3NC2=O)c([N+](=O)[O-])c1 (stereo unspecified), the binding response (% of control) was inconclusive: 82.9%. In the case of Cc1ccc(-c2[nH]nc3c2C(c2ccoc2)C(C#N)=C(N)O3)cc1C (stereo unspecified), the binding response (% of control) is reported as inactive: 102%. With Cc1nn(C)c(=O)n1N(C)c1ncc(C(F)(F)F)cc1Cl the binding response (% of control) was inconclusive: 96.2%. COc1ccc(NC(=O)Nc2ccc(C(C)C)cc2)cc1 was tested, and the binding response (% of control) was inconclusive: 93.3%. With C/C(=N\NC(=O)c1ccc([N+](=O)[O-])cc1)c1c(O)cc(C)oc1=O the binding response (% of control) was inactive: 99.6%. In the case of Nc1ccccc1NC1CCCCC1, the binding response (% of control) is reported as inactive: 117%. In the case of COc1ccc(/C(N)=N/OC(=O)c2cccc([N+](=O)[O-])c2C)cc1, the binding response (% of control) is reported as inconclusive: 110%. With Cc1ccc(S(=O)(=O)NNC(=O)c2cnn(-c3ccccc3)c2C(F)(F)F)cc1 the binding response (% of control) was inconclusive: 11.3%. With CCOC(=O)C1=C(C)NC2=C(C(=O)CC(C)(C)C2)C1c1coc2ccccc2c1=O (stereo unspecified) the binding response (% of control) was inactive: 106%.
